We go through one substance from publication PMC10273071.

Amino acid sequences for entries named in this document (tags omitted).
UniProt P30366: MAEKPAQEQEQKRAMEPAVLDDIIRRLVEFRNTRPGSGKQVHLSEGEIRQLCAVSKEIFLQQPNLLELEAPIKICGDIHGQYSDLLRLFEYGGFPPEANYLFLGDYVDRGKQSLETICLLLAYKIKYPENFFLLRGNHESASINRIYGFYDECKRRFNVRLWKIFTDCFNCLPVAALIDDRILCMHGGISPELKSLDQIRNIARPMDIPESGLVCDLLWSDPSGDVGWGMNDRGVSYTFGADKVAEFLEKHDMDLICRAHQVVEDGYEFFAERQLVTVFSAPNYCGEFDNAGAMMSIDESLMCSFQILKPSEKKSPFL

No constants are given. Whether binding was seen depends on the method and setting. Some entries that bind do so weakly or less than the wild type.

The target in this assay is RipAS (R. solanacearum UW551), yeast two-hybrid fusion (Ralstonia solanacearum UW551). The experiment in a line: two-hybrid.

For “TOPP1 (AT2G29400) of Arabidopsis, yeast two-hybrid fusion (from UniProt P30366 1-318) (enzyme)”, the binding entry is given as “binds”.
